The values that follow come from PMC7794384.

Protein sequences, listed by entry. Tags and fused reporters are not part of them. Lines headed by an entry give the natural chain unless they say otherwise; changes in a name come on top.
UniProt J9VX48: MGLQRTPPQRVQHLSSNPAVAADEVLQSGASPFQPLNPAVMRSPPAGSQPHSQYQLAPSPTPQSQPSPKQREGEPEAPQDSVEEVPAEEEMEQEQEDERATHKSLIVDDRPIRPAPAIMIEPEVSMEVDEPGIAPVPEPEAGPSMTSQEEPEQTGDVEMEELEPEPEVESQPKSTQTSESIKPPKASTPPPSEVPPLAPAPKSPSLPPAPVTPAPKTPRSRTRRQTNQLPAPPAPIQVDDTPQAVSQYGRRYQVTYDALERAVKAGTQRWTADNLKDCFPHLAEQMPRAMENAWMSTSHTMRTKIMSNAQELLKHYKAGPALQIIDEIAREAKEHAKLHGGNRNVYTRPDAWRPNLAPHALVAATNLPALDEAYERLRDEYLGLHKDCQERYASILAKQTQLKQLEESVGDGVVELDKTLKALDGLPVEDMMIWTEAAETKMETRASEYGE
UniProt J9VUF4: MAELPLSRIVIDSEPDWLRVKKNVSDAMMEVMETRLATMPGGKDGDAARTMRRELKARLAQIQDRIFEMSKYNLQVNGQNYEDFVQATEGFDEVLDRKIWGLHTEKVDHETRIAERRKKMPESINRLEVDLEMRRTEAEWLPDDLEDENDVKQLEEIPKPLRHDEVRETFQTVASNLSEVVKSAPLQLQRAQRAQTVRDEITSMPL
UniProt J9VGF6: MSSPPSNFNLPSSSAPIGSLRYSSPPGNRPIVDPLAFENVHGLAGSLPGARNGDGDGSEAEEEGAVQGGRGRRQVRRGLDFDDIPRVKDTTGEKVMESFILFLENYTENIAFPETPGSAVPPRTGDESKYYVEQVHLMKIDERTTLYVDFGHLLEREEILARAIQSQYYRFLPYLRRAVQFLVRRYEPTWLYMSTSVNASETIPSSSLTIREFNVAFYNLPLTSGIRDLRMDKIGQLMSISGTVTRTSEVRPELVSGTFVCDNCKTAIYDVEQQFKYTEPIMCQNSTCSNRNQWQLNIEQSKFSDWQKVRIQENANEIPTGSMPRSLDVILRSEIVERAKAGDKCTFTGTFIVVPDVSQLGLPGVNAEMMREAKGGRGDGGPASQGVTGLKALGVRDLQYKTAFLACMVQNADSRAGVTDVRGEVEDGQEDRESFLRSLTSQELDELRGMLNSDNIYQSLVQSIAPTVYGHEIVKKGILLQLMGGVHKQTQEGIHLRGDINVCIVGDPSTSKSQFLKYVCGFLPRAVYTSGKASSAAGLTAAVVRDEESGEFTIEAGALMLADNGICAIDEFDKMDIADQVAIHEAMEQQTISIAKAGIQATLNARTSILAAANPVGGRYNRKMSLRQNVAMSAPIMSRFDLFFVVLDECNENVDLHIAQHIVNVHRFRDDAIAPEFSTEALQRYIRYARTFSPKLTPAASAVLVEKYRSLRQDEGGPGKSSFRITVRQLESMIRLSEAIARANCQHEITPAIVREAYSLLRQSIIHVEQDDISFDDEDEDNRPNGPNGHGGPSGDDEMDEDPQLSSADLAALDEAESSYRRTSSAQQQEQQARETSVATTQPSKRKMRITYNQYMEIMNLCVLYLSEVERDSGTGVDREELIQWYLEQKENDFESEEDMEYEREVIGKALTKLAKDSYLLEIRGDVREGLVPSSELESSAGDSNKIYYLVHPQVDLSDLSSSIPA
UniProt J9VIH9: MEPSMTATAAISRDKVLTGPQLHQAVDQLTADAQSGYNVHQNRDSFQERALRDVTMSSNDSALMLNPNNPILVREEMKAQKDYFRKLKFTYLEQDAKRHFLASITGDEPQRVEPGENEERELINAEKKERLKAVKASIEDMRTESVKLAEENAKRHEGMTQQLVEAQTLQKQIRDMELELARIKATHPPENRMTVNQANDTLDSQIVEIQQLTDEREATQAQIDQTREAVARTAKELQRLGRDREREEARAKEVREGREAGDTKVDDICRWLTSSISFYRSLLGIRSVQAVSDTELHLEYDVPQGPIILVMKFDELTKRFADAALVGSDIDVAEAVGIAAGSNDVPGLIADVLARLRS

These are yes or no findings as the source states them, for the method shown. Binding seen in cells or lysates may run through a third protein. A yes stands for co-enrichment or nearness to the bait. Other partners may have been found.

The target of experiment [1] is 3×FLAG-GFP-Bgi1^FL (C. neoformans) (UniProt J9VZK6). Briefly: affinity purification with mass spectrometry; FLAG-IP (anti-FLAG M2 on Dynabeads) of 3×FLAG-tagged baits from lysate of TBZ-treated C. neoformans cells, binding buffer BB150 (25 mM HEPES pH 8.0, 150 mM KCl, 0.1% NP-40), 4 °C, eluted with 3×FLAG peptide, nano LC–MS–MS.
For experiment [2] the target is unchanged. As to the kind of experiment: affinity purification with mass spectrometry; as a1 but 300 mM KCl throughout (BB300), the more stringent condition; FLAG-IP of Bgi1^FL.
The target in experiment [3] is Spc25-3×FLAG (C. neoformans). Briefly: affinity purification with mass spectrometry; FLAG-IP (anti-FLAG M2 on Dynabeads) of 3×FLAG-tagged baits from lysate of TBZ-treated C. neoformans cells, binding buffer BB150 (25 mM HEPES pH 8.0, 150 mM KCl, 0.1% NP-40), 4 °C, eluted with 3×FLAG peptide, nano LC–MS–MS.
Experiment [4] has as its target Dsn1-3×FLAG (C. neoformans). The description is as above.
Experiment [5] addresses 3×FLAG-GFP-Bgi1^FL (C. neoformans) (UniProt J9VZK6). Described as above. This is another data set of the same source.
Experiment [6] addresses CENP-C^Mif2-3×FLAG (C. neoformans). The experiment is described as above.

In the case of Nnf1 (CNAG_04479) (from UniProt J9VX48), the binding result in experiment [1] and in experiment [2] was “binds” in each case.
As for Nsl1 (CNAG_04300) (from UniProt J9VUF4), the binding entry in experiment [1] and in experiment [2] was “binds” in each case.
Consider Mcm6 (from UniProt J9VGF6), for which the binding result in experiment [1] and in experiment [2] was “binds” in each case.
For the molecule Sos7 (CNAG_03715) (from UniProt J9VIH9), the binding result in experiment [1] and in experiment [2] was “binds” throughout.

B1: Mcm7 (protein, UniProt J9VU53 1-788)
chain: MATNDAGASVMPVANVQINYEEESAKIEDFLERYVAGPRPRRNQDALPADDDAAAEDTSEDEDDLAEGMDGLNVQGARRTKFKYLRMLREVANRRREDIVIDLKDLKRHSNDLSLLHNIQNNTRRYIQLFSDVIDKIMPPPDNEVDYSSDVLDLIMQQRREMNAQVEAGERNADAGMFPPELMRRYNVYFRPLRSDDVLAVRAVRGAHLGKLITVRGIVTRVSEVKPLLIVNAYTCDSCGNEIFQEITQKHFAPLTVCPSDVCVRNQTKGQLHMQTRASRFRPFQEVKIQEMADQVPVGHIPRSMTIHLYGALTRSVNPGDVVHIGGIFIPTPYTGMRALRAGLLQDTFLEAMHVHQLKKQYHTMESTPEIQEAIADLKSDPALYARLANSIAPEIYGHEDVKKALLLLLVGGVTNSRKDGMKIRGDINVCLMGDPGVAKSQLLKYITKVAPRGVYTTGRGSSGVGLTAAVMRDPVTDEMVLEGGALVLADNGICCIDEFDKMEESDRTAIHEVMEQQTISISKAGITTTLNARTSILAAANPLYGRYNPKISPVENINLPAALLSRFDVLFLILDSPTREDDERLAQHVCFVHMHNTHPELDFEPVDPTLMRHYIAECRKIEPRVPQALSEYIVSSYVQMRKQQQEDEAEEKSHSYVSARTLLAVLRLSQALARLRHDDIVQQGDVDEALRLMDVSKASLYEHSQQRNGEDQTSTSKIFRIIKDMAQRAADEGDDEEMGELAMMDVRNRVIAKGFTEMQLMETILEYENMDVLMRTANGSRLQFVTV
Take B1: the binding entry in experiment [3], in experiment [4], in experiment [5], in experiment [6] and in experiment [2] was “binds” in each case.
